“And” between values parts separate entries of the source, which are not always exact repeats. Identical values can stand only once. The name of at least one read-out is uncertain.
Experiment: carrageenin-induced hind paw inflammation
Assay type: in vivo
Conditions: rat
Procedure: Representative compounds were also evaluated for anti-inflammatory activity in the test method described by C. A. Winter at 111 Proc. Soc. Exp. Biol. Med., 544 (1962). In this method, inflammation is created by injecting carrageenin into the hind paw of rats. Test compounds are administered prior to injection to determine percent inhibition of the subsequent inflammation, in comparison with control animals.

C#Cc1ccc(Oc2ccccc2F)cc1 [(4-(2-fluorophenoxy)phenyl)acetylene, (4-(2-Fluorophenoxy)phenyl)acetylene]
% Inhibition (10 mg./kg.): 44%

C#Cc1ccc(-c2ccccc2)cc1 [4-biphenylylacetylene, 4-Biphenylylacetylene]
% Inhibition (3 mg./kg.): 41% | % Inhibition (5 mg./kg.): 26% | % Inhibition (10 mg./kg.): 56% and 51%

C#Cc1ccc(-c2ccccc2F)cc1 [(4-(2-fluorophenyl)phenyl)acetylene]
% Inhibition (3 mg./kg.): 57% and 35% and 32% | % Inhibition (5 mg./kg.): 36% and 35% | % Inhibition (10 mg./kg.): 51% and 52% and 30%

C#Cc1ccc(-c2ccccc2)c(F)c1 [(3-fluoro-4-phenylphenyl)acetylene, (3-Fluoro-4-phenylphenyl)acetylene]
% Inhibition (50 mg./kg.): 54% and 77%

Source: patent publication US4301313A, “Halogenated ethynyl biphenyls” (Eli-Lilly and Company, priority 1974, dated 1981)
